These are yes or no findings as the source states them, for the method shown.
Target: Cbp1ΔHTH3 (Cbp1 with the third HTH domain deleted) (S. solfataricus P2)
Test: native gel or EMSA

- binding: no binding (tested: ΔHTH3 at 25 nM)
B1: Cren7 (S. solfataricus, SSO6901) (natural protein, UniProt Q97ZE3 1-60, looked up)
chain: MSSGKKPVKVKTPAGKEAELVPEKVWALAPKGRKGVKIGLFKDPETGKYFRHKLPDDYPI
